Test results from the supplement of paper PMC3334620.
The full ranking holds about 33,000 sequences; the median of “E-score (-0.5 to 0.5)” is about -8e-05, and the highest 2% start at about 0.23. Some of the results follow.

Molecular target: T1, Nrg2 (UniProt P38082)
T1 sequence: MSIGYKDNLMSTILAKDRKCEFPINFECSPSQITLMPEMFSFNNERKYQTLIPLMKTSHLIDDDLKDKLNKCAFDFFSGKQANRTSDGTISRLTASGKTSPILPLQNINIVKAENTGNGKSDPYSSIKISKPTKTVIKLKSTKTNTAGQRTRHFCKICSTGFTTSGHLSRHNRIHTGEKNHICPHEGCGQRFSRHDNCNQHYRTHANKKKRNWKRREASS
Experiment: PBM E-score (8-mer binding enrichment) (E-score (-0.5 to 0.5)); higher = stronger / more preferred TF binding
Settings: protein concentration: 100 nM; construct: GST-full length
How it was run: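 For each ungapped eight-base word taken together with its reverse complement, the Universal PBM Analysis Suite assigned an E-score. Binding data came from GST-tagged yeast transcription factors, applied at about 100-200 nM, on universal all-10-mer Agilent arrays made double-stranded by primer extension. Fluorescent anti-GST marked bound protein, and scans were normalised with masliner.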

Going from ATCGTCCA to ATACGCAC, the “PBM E-score” value rises from -0.25 to 0.195.

Going from GGCGTCGA to CCGACCTC, the “PBM E-score” value falls from 0.148 to -0.0353.

First: TGTGGGAA
Second: AATCATTG
The “PBM E-score” value of the first is lower: -0.0662 for the first, -0.0463 for the second.

First: CTCAGACA
Second: AAGTAATG
The “PBM E-score” value of the first is higher: 0.0837 for the first, 0.0727 for the second.

First: CGGACGGC
Second: AATGCTAG
The “PBM E-score” value of the first is lower: -0.281 for the first, -0.188 for the second.

First: ATGTGGCA
Second: AGTTCGCC
The “PBM E-score” value of the first is lower: -0.125 for the first, 0.119 for the second.

First: AAGCGATA
Second: CGGAGATC
The “PBM E-score” value of the first is higher: -0.0485 for the first, -0.0999 for the second.

Compared with CAACTCTA, ACCTTATG is higher in “PBM E-score” value: -0.0729 for the first, 0.083 for the second.

Going from TATGATGA to GTCAATAA, the “PBM E-score” value falls from 0.131 to -0.0545.

Compared with CGCTACAA, CGAAACGA is lower in “PBM E-score” value: 0.0962 for the first, 0.0616 for the second.

First: AAGTTTTG
Second: GCGGGCGA
The “PBM E-score” value of the first is lower: 0.0361 for the first, 0.176 for the second.

Compared with ATAGATGC, AGATCTAC is lower in “PBM E-score” value: 0.0367 for the first, 0.00881 for the second.

Compared with CAGTCGGA, CTACTAAA is higher in “PBM E-score” value: -0.0641 for the first, -0.0146 for the second.

Compared with CTTGGTTA, CTGAGTGC is lower in “PBM E-score” value: 0.168 for the first, -0.0978 for the second.

First: GACCCGTA
Second: CCGGGCCA
The “PBM E-score” value of the first is higher: -0.0252 for the first, -0.18 for the second.

Compared with GTAAAGCA, ATAAATAC is higher in “PBM E-score” value: 0.0559 for the first, 0.283 for the second.

First: ACGCGTTC
Second: AAATAATC
The “PBM E-score” value of the first is higher: 0.0995 for the first, 0.0163 for the second.

Going from CGACTCCG to TGGGCAAA, the “PBM E-score” value rises from -0.183 to -0.0262.

Compared with CTAAAATA, AAAGCGCA is lower in “PBM E-score” value: 0.0247 for the first, 0.012 for the second.

First: GAGCCATC
Second: CCCTCCCG
The “PBM E-score” value of the first is higher: -0.0472 for the first, -0.164 for the second.

Compared with CCACGAAA, TTACTCAA is higher in “PBM E-score” value: -0.00511 for the first, 0.0539 for the second.

First: AACTCCCG
Second: ATGAAAGA
The “PBM E-score” value of the first is higher: -0.0376 for the first, -0.0407 for the second.

First: CATGCCAA
Second: ACTCGGCC
The “PBM E-score” value of the first is lower: 0.00072 for the first, 0.156 for the second.

Going from CTTCCCCC to ATGCATAC, the “PBM E-score” value rises from -0.439 to 0.158.

Compared with AGCCATAG, AGTGGTGA is higher in “PBM E-score” value: -0.141 for the first, 0.0048 for the second.

Compared with CCGGACGC, ACAAAACA is higher in “PBM E-score” value: -0.0466 for the first, 0.119 for the second.

First: GTTATAAA
Second: CTCACAGA
The “PBM E-score” value of the first is higher: 0.0259 for the first, -0.0399 for the second.

Going from ATGTAGTG to AAGACTTG, the “PBM E-score” value falls from 0.106 to -0.0923.

First: GTTAGTAA
Second: AGTTGCAG
The “PBM E-score” value of the first is lower: -0.0112 for the first, 0.0622 for the second.

Going from CTGCGCCC to ACTTGATA, the “PBM E-score” value rises from -0.199 to 0.161.

First: CGATTGCG
Second: CCTTTACC
The “PBM E-score” value of the first is higher: -0.00482 for the first, -0.23 for the second.

Compared with AACGGACT, ACGGCACA is higher in “PBM E-score” value: -0.246 for the first, -0.0257 for the second.

Going from GTTTATTA to GTCCTCCA, the “PBM E-score” value falls from 0.194 to -0.0208.

Compared with ACATCCAA, GGGCGGAA is higher in “PBM E-score” value: 0.0589 for the first, 0.152 for the second.

Going from CCTAGGAG to ATCGGAAG, the “PBM E-score” value rises from -0.097 to -0.0539.

Going from TAATAGTA to CCGATCAA, the “PBM E-score” value falls from 0.192 to 0.0214.

Compared with GGATGAAC, GTCGGCCA is lower in “PBM E-score” value: -0.0785 for the first, -0.148 for the second.

Compared with CCCTAAAA, ACCAAGCG is higher in “PBM E-score” value: -0.112 for the first, -0.105 for the second.

First: TACATGTA
Second: CCCCCCAC
The “PBM E-score” value of the first is higher: 0.092 for the first, -0.477 for the second.

Compared with CCAGACTA, ATGGGACC is higher in “PBM E-score” value: -0.0181 for the first, 0.124 for the second.

First: CCAATTAG
Second: CTAGCGCA
The “PBM E-score” value of the first is higher: 0.199 for the first, 0.0292 for the second.

First: CTCGGGAA
Second: AGTAACAC
The “PBM E-score” value of the first is lower: -0.0568 for the first, 0.106 for the second.

Going from CGCACAAG to AAAAGATT, the “PBM E-score” value rises from 0.0299 to 0.0589.

Compared with CAGAGCTA, CACATTTC is higher in “PBM E-score” value: -0.283 for the first, 0.192 for the second.

First: GGTGCCTA
Second: CAATACAA
The “PBM E-score” value of the first is lower: -0.0877 for the first, 0.275 for the second.

First: GAGGAGAA
Second: CATAACTA
The “PBM E-score” value of the first is lower: -0.111 for the first, -0.0347 for the second.

Going from CAGGGAGC to CTCAGTGC, the “PBM E-score” value rises from -0.0709 to -0.00885.

Compared with CTTAGCCA, CGGGTACG is lower in “PBM E-score” value: -0.00182 for the first, -0.237 for the second.

Going from ACGAAGAG to AGAGCTAA, the “PBM E-score” value falls from -0.00211 to -0.00606.

Compared with ATACTCTG, ATAGTTGA is lower in “PBM E-score” value: 0.123 for the first, 0.1 for the second.

First: AAGGAGAA
Second: CCGGATGC
The “PBM E-score” value of the first is higher: 0.0595 for the first, -0.107 for the second.

First: CTTGATTC
Second: ACCCAACA
The “PBM E-score” value of the first is higher: 0.0772 for the first, -0.0856 for the second.

Going from ATCTAATC to CTAGTAAG, the “PBM E-score” value falls from 0.05 to 0.00559.

Compared with CTTGAGTA, ACAGAAGG is lower in “PBM E-score” value: 0.0663 for the first, -0.181 for the second.

Going from ATTTATAA to ACGCTACT, the “PBM E-score” value falls from 0.186 to -0.108.

Going from AGATCATC to CAGGCAGC, the “PBM E-score” value falls from -0.0349 to -0.0509.

First: CATGATGG
Second: ACAGCCTG
The “PBM E-score” value of the first is lower: -0.0403 for the first, 0.0582 for the second.

Compared with CGGCACAC, AGGTAGCC is lower in “PBM E-score” value: -0.00765 for the first, -0.0804 for the second.

First: GAAGCAGC
Second: CATATTGC
The “PBM E-score” value of the first is lower: -0.167 for the first, -0.0107 for the second.

Going from CATCGGCC to ATAACACA, the “PBM E-score” value rises from -0.0831 to 0.0812.

First: ATTGTTGA
Second: AAGTAGTG
The “PBM E-score” value of the first is higher: 0.146 for the first, 0.0607 for the second.

Going from ATGCAAGC to ATAGATCA, the “PBM E-score” value rises from 0.0922 to 0.21.

First: AGTTAGAC
Second: GGTAGCAA
The “PBM E-score” value of the first is higher: 0.00674 for the first, -0.092 for the second.

Compared with TATCTAGA, CTGGCAAC is lower in “PBM E-score” value: -0.0175 for the first, -0.079 for the second.

Compared with AGTCAGAA, GAATTGGC is higher in “PBM E-score” value: -0.0353 for the first, 0.00301 for the second.

First: ATAAACAT
Second: GTATGCAA
The “PBM E-score” value of the first is lower: -0.00844 for the first, 0.0781 for the second.

Compared with AACCGGTA, TAAGCTGA is higher in “PBM E-score” value: -0.149 for the first, 0.0392 for the second.

Going from CAATCCAC to ACCGTGTA, the “PBM E-score” value rises from -0.0677 to 0.0649.

Going from CTCACCAC to CTGAAGAA, the “PBM E-score” value falls from -0.0591 to -0.0719.

Going from TAACCTAA to TCATATAA, the “PBM E-score” value rises from -0.00165 to 0.108.

First: AGCTGCCT
Second: ATCGAATA
The “PBM E-score” value of the first is lower: -0.298 for the first, -0.0933 for the second.

Compared with GTACATCA, CCACCAGA is lower in “PBM E-score” value: 0.11 for the first, 0.0154 for the second.

First: TAAATTCA
Second: GGGAGAGA
The “PBM E-score” value of the first is higher: 0.0029 for the first, -0.159 for the second.

Going from CTCTAGAA to AGCTTTAG, the “PBM E-score” value rises from -0.187 to -0.105.

Going from CCTTGGGC to ACGGTCCG, the “PBM E-score” value falls from -0.0447 to -0.231.

First: GGGCACAA
Second: GTCGAAGA
The “PBM E-score” value of the first is lower: -0.043 for the first, -0.0187 for the second.

Compared with CGACGTAC, CGTAGACG is lower in “PBM E-score” value: 0.027 for the first, -0.133 for the second.

Compared with GCGTGTAA, AACAACTC is higher in “PBM E-score” value: -0.0365 for the first, 0.0486 for the second.

First: CGCCCTAC
Second: ACTAATTG
The “PBM E-score” value of the first is lower: -0.18 for the first, 0.139 for the second.

Going from ATATGAGA to CCCATTAG, the “PBM E-score” value falls from 0.152 to -0.196.

Compared with GAGAGTGC, ACGTCGAG is higher in “PBM E-score” value: -0.178 for the first, 0.0245 for the second.

First: GAACGTGC
Second: CGTGCAAA
The “PBM E-score” value of the first is lower: -0.0418 for the first, 0.0253 for the second.

Going from CCAGATCC to GGCAAACA, the “PBM E-score” value rises from -0.0551 to 0.0794.

Compared with CGACTGCA, AACCGACT is lower in “PBM E-score” value: 0.0284 for the first, -0.0613 for the second.

Going from AACAAACC to AGTGACTA, the “PBM E-score” value falls from 0.0713 to -0.133.

First: ACAGATGC
Second: ACCTATAG
The “PBM E-score” value of the first is lower: -0.126 for the first, -0.0692 for the second.
